# Reference: PubChem BioAssay AID493246 (Drosophila RNAi Screening Center, 2011)
# Purpose: 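Genes fly cells need to grow and stay alive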 (primary screen)
# Cells: Drosophila Kc and S2R+ cells
# Reagent: long dsRNA against Drosophila genes
# Measured: 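Cell number per well after knock-down, printed as raw plate values; calls were based on per-plate z-scores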
# Reading the numbers: Kc cell number and S2R+ cell number: higher = more cells remaining
# Call rule: 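Counted as a hit if cell number falls by a z-score of at least 3 within its plate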
# The screen tested about 21,000 reagents; shown is a random part of those with a known target gene and a result. Of all reagents, 429 (2%) are marked active. 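Values are raw and not normalised between plates; calls rest on per-plate z-scores that were not deposited.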 A number with no mark means an inactive call. A plus sign joins genes that one reagent is predicted to hit. Not given: the amount of reagent, the time to read-out.
target,dsRNA,"Kc cell number, rep 1","Kc cell number, rep 2","S2R+ cell number, rep 1","S2R+ cell number, rep 2"
CG17732,DRSC10283,1.44e6,1.43e6,1.36e6,1.49e6
H2.0 (Homeodomain protein 2.0),DRSC03340,1.48e6,1.53e6,1.04e6,1.12e6
Polr1A (RNA polymerase I subunit A),DRSC07535,1.48e6,1.53e6,1.19e6,1.25e6
v (vermilion),DRSC20383,5.59e5,,8.54e5,
S6KL (S6 Kinase Like),DRSC19349,1.66e6,1.68e6,1.15e6,1.25e6
CG8206,DRSC20093,4.92e5,,8.24e5,
CG13506,DRSC04150,1.58e6,1.72e6,1.21e6,1.41e6
CG9630,DRSC16527,1.49e6,1.60e6,1.18e6,1.21e6
Ugt36F1 (UDP-glycosyltransferase family 36 member F1),DRSC02601,1.54e6,1.58e6,1.32e6,3.47e5
Qsox4 (Quiescin sulfhydryl oxidase 4),DRSC14224,1.63e6,1.64e6,1.28e6,1.44e6
Tim17a2,DRSC12252,1.64e6,1.81e6,1.24e6,1.37e6
RpL29 (Ribosomal protein L29),DRSC04650,1.47e6,1.55e6,1.25e6,3.01e5
CG12133,DRSC06108,1.51e6,1.59e6,1.28e6,1.45e6
CG13786,DRSC02289,1.60e6,1.53e6,1.08e6,1.26e6
CG8149,DRSC16391,1.43e6,1.46e6,1.15e6,1.23e6
Lrp4 (LDL receptor related protein 4),DRSC20118,5.60e5,,9.18e5,
Rat1 (Rat1 5'-3' exoribonuclease),DRSC02044,9.62e5,1.13e6,5.67e5,7.57e5
CG7536,DRSC20050,1.42e6,1.48e6,1.01e6,1.18e6
CG42726 + CG42727,DRSC14485,1.70e6,1.82e6,1.42e6,1.55e6
Dscam2 (Down syndrome cell adhesion molecule 2),DRSC08869,1.40e6,1.48e6,9.88e5,1.11e6
Dscam2 (Down syndrome cell adhesion molecule 2),DRSC10198,1.61e6,1.52e6,1.21e6,1.28e6
Dscam2 (Down syndrome cell adhesion molecule 2),DRSC11018,1.53e6,1.41e6,1.10e6,1.20e6
Dscam2 (Down syndrome cell adhesion molecule 2),DRSC11019,1.58e6,1.39e6,1.18e6,1.27e6
CG15861,DRSC04274,1.55e6,1.44e6,1.22e6,1.29e6
